Values from PubChem BioAssay AID652272 (Drosophila RNAi Screening Center, 2013)
Purpose: 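Genes whose knock-down decreases or increases Hedgehog reporter output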 (primary screen). Cell system: Drosophila clone 8 (Cl8) cells. Reagent: long dsRNA against Drosophila genes. Measured: 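Plate reader light from a firefly reporter under a ptc promoter fragment that responds to Hedgehog, with Renilla light as transfection reference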. Reading the numbers: firefly Hh reporter signal: higher = more ptc reporter light; Renilla reference signal: higher = more Renilla control light. Call rule: 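Called a hit if the two-replicate mean z-score lies below -2 or above +3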. Meaning of the calls: active = hit: reporter lowered or raised; inactive = not a hit.
The deposit covers about 21,000 reagents; shown is a random part of those that have a named target and a result. Of all reagents, 503 (2.4%) were called active. 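Raw plate light values, not normalised; calls rest on replicate z-scores that were not deposited; hits include reporter decreases as well as increases.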 Reagents against one gene are numbered here. Not stated in the record: the amount of reagent, the time to read-out.

Eaat1 → firefly Hh reporter signal, replicate 1 = 64549; firefly Hh reporter signal, replicate 2 = 49155; Renilla reference signal, replicate 1 = 1931; Renilla reference signal, replicate 2 = 4132; activity call = inactive
CG6791 → firefly Hh reporter signal, replicate 1 = 1.69e5; firefly Hh reporter signal, replicate 2 = 1.03e5; Renilla reference signal, replicate 1 = 7562; Renilla reference signal, replicate 2 = 4679; activity call = inactive
CG43174 (retired record) → firefly Hh reporter signal, replicate 1 = 2.41e5; Renilla reference signal, replicate 1 = 5461; activity call = inactive
mTerf5 → firefly Hh reporter signal, replicate 1 = 1.79e5; firefly Hh reporter signal, replicate 2 = 1.08e5; Renilla reference signal, replicate 1 = 6613; Renilla reference signal, replicate 2 = 4441; activity call = inactive
CG5397 → firefly Hh reporter signal, replicate 1 = 92795; firefly Hh reporter signal, replicate 2 = 87561; Renilla reference signal, replicate 1 = 3617; Renilla reference signal, replicate 2 = 3625; activity call = inactive
Dtd → firefly Hh reporter signal, replicate 1 = 69664; firefly Hh reporter signal, replicate 2 = 1.56e5; Renilla reference signal, replicate 1 = 2006; Renilla reference signal, replicate 2 = 4121; activity call = inactive
Cyp305a1 → firefly Hh reporter signal, replicate 1 = 84675; firefly Hh reporter signal, replicate 2 = 49021; Renilla reference signal, replicate 1 = 3019; Renilla reference signal, replicate 2 = 1984; activity call = inactive
CG16837 → firefly Hh reporter signal, replicate 1 = 94588; firefly Hh reporter signal, replicate 2 = 61633; Renilla reference signal, replicate 1 = 2036; Renilla reference signal, replicate 2 = 4049; activity call = inactive
CG3355 → firefly Hh reporter signal, replicate 1 = 75844; firefly Hh reporter signal, replicate 2 = 28717; Renilla reference signal, replicate 1 = 2049; Renilla reference signal, replicate 2 = 3096; activity call = inactive
Slob #1 → firefly Hh reporter signal, replicate 1 = 1.56e5; firefly Hh reporter signal, replicate 2 = 54373; Renilla reference signal, replicate 1 = 3536; Renilla reference signal, replicate 2 = 5036; activity call = inactive
Slob #2 → firefly Hh reporter signal, replicate 1 = 94003; firefly Hh reporter signal, replicate 2 = 1.09e5; Renilla reference signal, replicate 1 = 4001; Renilla reference signal, replicate 2 = 4778; activity call = inactive
AP-2sigma → firefly Hh reporter signal, replicate 1 = 5.08e5; firefly Hh reporter signal, replicate 2 = 1.82e5; Renilla reference signal, replicate 1 = 25936; Renilla reference signal, replicate 2 = 3869; activity call = inactive
Rbp1-like → firefly Hh reporter signal, replicate 1 = 1.31e5; firefly Hh reporter signal, replicate 2 = 3.48e5; Renilla reference signal, replicate 1 = 3393; Renilla reference signal, replicate 2 = 12549; activity call = inactive
Dlg5 → firefly Hh reporter signal, replicate 1 = 63186; firefly Hh reporter signal, replicate 2 = 98071; Renilla reference signal, replicate 1 = 2708; Renilla reference signal, replicate 2 = 4326; activity call = inactive
CR14798 → firefly Hh reporter signal, replicate 1 = 80455; firefly Hh reporter signal, replicate 2 = 2.60e5; Renilla reference signal, replicate 1 = 1562; Renilla reference signal, replicate 2 = 11096; activity call = inactive
eIF4E3 → firefly Hh reporter signal, replicate 1 = 1.02e5; firefly Hh reporter signal, replicate 2 = 87441; Renilla reference signal, replicate 1 = 5040; Renilla reference signal, replicate 2 = 3091; activity call = inactive
CG13258 → firefly Hh reporter signal, replicate 1 = 94071; firefly Hh reporter signal, replicate 2 = 81783; Renilla reference signal, replicate 1 = 2400; Renilla reference signal, replicate 2 = 6837; activity call = inactive
CG13917 → firefly Hh reporter signal, replicate 1 = 1.46e5; firefly Hh reporter signal, replicate 2 = 1.15e5; Renilla reference signal, replicate 1 = 5968; Renilla reference signal, replicate 2 = 4525; activity call = inactive
Mcm7 → firefly Hh reporter signal, replicate 1 = 57313; firefly Hh reporter signal, replicate 2 = 51158; Renilla reference signal, replicate 1 = 2513; Renilla reference signal, replicate 2 = 2048; activity call = inactive
Ythdc1 → firefly Hh reporter signal, replicate 1 = 1.28e5; firefly Hh reporter signal, replicate 2 = 1.12e5; Renilla reference signal, replicate 1 = 6252; Renilla reference signal, replicate 2 = 4196; activity call = inactive
CR4575 → firefly Hh reporter signal, replicate 1 = 93331; firefly Hh reporter signal, replicate 2 = 2.94e5; Renilla reference signal, replicate 1 = 2485; Renilla reference signal, replicate 2 = 10006; activity call = inactive
CG2120 → firefly Hh reporter signal, replicate 1 = 69184; firefly Hh reporter signal, replicate 2 = 2.60e5; Renilla reference signal, replicate 1 = 2163; Renilla reference signal, replicate 2 = 8867; activity call = inactive
tld → firefly Hh reporter signal, replicate 1 = 5.58e5; firefly Hh reporter signal, replicate 2 = 98059; Renilla reference signal, replicate 1 = 27128; Renilla reference signal, replicate 2 = 2621; activity call = inactive
luna #1 → firefly Hh reporter signal, replicate 1 = 1.75e5; firefly Hh reporter signal, replicate 2 = 2.77e5; Renilla reference signal, replicate 1 = 4618; Renilla reference signal, replicate 2 = 12874; activity call = inactive
luna #2 → firefly Hh reporter signal, replicate 1 = 32955; firefly Hh reporter signal, replicate 2 = 6424; Renilla reference signal, replicate 1 = 1040; Renilla reference signal, replicate 2 = 467; activity call = inactive
luna #3 → firefly Hh reporter signal, replicate 1 = 1.67e5; firefly Hh reporter signal, replicate 2 = 7.70e5; firefly Hh reporter signal, replicate 3 = 84136; Renilla reference signal, replicate 1 = 3346; Renilla reference signal, replicate 2 = 5609; activity call = inactive
SdhBL → firefly Hh reporter signal, replicate 1 = 63757; firefly Hh reporter signal, replicate 2 = 2.49e5; Renilla reference signal, replicate 1 = 1638; Renilla reference signal, replicate 2 = 9904; activity call = inactive

Single entries from the list.
Under “activity call”, Ythdc1 reads inactive
Result for CG5397 under “activity call”: inactive
